± gives the standard error. The uncertainty is large for many entries.

B1: glmS ribozyme (parent)
chain: AUAAAAGCGCCAGAACUACAGAAAUGUAGUUGACGAGGAGGAGGUUUAUCGAAUUUUCGGCGGAUGCCUCCAAA

The variants in the first data set derive from B1. As to the kind of experiment: KM; higher = weaker cofactor use; RNA array. To be noted: with glucosamine-6-phosphate. In outline:
(§1)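 Sequenced MiSeq chips were the platform: E. coli RNA polymerase transcribed barcoded ribozyme variants on them in situ, and a hybridised Cy3 probe tracked these at 37 °C. After glucosamine-6-phosphate (40 μM to 10 mM) in HEPES/KCl/Mg(OAc)2 buffer was flowed in, tiles were imaged over ~14 h. Signals normalised to baseline and to non-cleaving reference variants were reduced to per-tile medians and fit to one- or two-exponential decays to obtain kobs. kcat and KM were derived through weighted Michaelis–Menten fits across concentrations.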
One may read the KM as the substrate concentration at which the rate is half of its maximum. Take G41U C68U: the KM was found to be 32200 ± 7100 µM.
With C16A G29A, the KM came out at 1790 ± 630 µM.
As to A15U G35A, the KM is 241 ± 160 µM.
Consider G41A A53U U54G, for which the KM was found to be 357 ± 330 µM.
The same measure, in the same setting: to U31C U49G belongs 1610 ± 200 µM.
Same read-out and setting: to G32A A42G A64G belongs 1990 ± 1300 µM.
On to G38A C61A G66U U69C C70U, for which the KM was determined as 94.6 ± 48 µM.
Same read-out and setting: with C16U G43A the figure was 4310 ± 3600 µM; with G29U G40C, 1010 ± 620 µM.
With C34A A53G, the KM came to 2740 ± 2300 µM.
The same measure, in the same setting: to U31A C71A belongs 1630 ± 1000 µM; to G38A C70G, 114 ± 72 µM; to A33U A53U G66A, 10200 ± 430 µM.
The same measure, in the same setting: to C34U G43A belongs 123 ± 110 µM; to U30A C70U, 321 ± 270 µM; to A39U C50A, 12300 ± 1900 µM.
Turning to G40C U49G, the KM worked out at 1460 ± 1400 µM.
Turning to A15U G66U, the KM worked out at 717 ± 180 µM.
For the variant C16G C67A, the KM is 1820 ± 1200 µM.
Same read-out and setting: to C16G A64C belongs 9060 ± 1500 µM.
Same read-out and setting: with A15U A52U the figure was 1610 ± 370 µM; with G37A U46G, 1970 ± 1400 µM.
As to A42C C67G, the KM came to 2420 ± 1900 µM.
Still for that read-out and setting: to U30A G37A belongs 2360 ± 1300 µM; to G38C U65C C71G, 17.6 ± 11 µM.
As to G40U U65G G66U, the KM is 561 ± 460 µM.
Same read-out and setting: to U31A A52G belongs 4620 ± 1600 µM; to G41C C71G, 1150 ± 1000 µM.
On the same count and under the same terms, to G29U A52G belongs 3340 ± 1200 µM; to G41C U54C, 1000 ± 590 µM.
On the same count and under the same terms, with A42G A53U the figure was 2240 ± 990 µM; with G32C G41U, 6200 ± 4700 µM.
With G41C C70U, the KM is 931 ± 570 µM.
As for G29A U54A, the KM was 3150 ± 1100 µM.
Same read-out and setting: with G40A U47A the figure was 1440 ± 270 µM.
For U31G U54C, the KM is 3090 ± 1700 µM.
The same measure, in the same setting: to A33C A53U belongs 1010 ± 530 µM; to A33C U54A, 7810 ± 1700 µM; to A33C U54G, 2740 ± 1400 µM.
For G29U A53U, the KM turned out to be 1600 ± 360 µM.
As for G32A U49G, the KM was 741 ± 85 µM.
On the same count and under the same terms, to C16G C34U belongs 17.4 ± 14 µM.
On the same count and under the same terms, to G37A G59A belongs 227 ± 160 µM; to G41C U46G, 2060 ± 210 µM.
As for U31A C58A, the KM turned out to be 32800 ± 9800 µM.
Same read-out and setting: with U31A C58G the figure was 35400 ± 16000 µM; with G41A A48U, 585 ± 570 µM.
The same measure, in the same setting: to G41U G66A belongs 1820 ± 560 µM; to A42G C67A, 524 ± 310 µM; to U31G A53U, 5030 ± 2900 µM.
In the case of C16U A42U A64G, the KM came to 4100 ± 2100 µM.
Turning to U30G A48G, the Michaelis constant (KM) was determined as 324 ± 190 µM.
On to A33U A39C, for which the KM was 3650 ± 1600 µM.
For the variant C16A C70U, the KM was 254 ± 200 µM.
Regarding G32A U45G, the KM was determined as 2680 ± 1900 µM.
The same measure, in the same setting: with G32A U45A the figure was 2580 ± 370 µM.
Consider A42C U56C, for which the KM amounted to 268 ± 230 µM.
Consider A42C U56G, for which the KM was 4130 ± 120 µM.
With U30G C68G, the KM worked out at 120 ± 57 µM.
As for G29A U49G, the KM was found to be 305 ± 290 µM.
With A15U U46A, the KM came to 2050 ± 300 µM.
Same read-out and setting: to G29U C70G belongs 354 ± 150 µM; to G40C U46A, 1370 ± 880 µM.
With G41U U69C, the KM amounted to 876 ± 520 µM.
The same measure, in the same setting: to C16A A48U belongs 163 ± 44 µM; to G38C C67U C70G, 175 ± 140 µM.
The same measure, in the same setting: to C16U C70G belongs 369 ± 200 µM.
The same measure, in the same setting: with G38U G66C C71U the figure was 50.4 ± 32 µM; with G29C A36C G43U, 37.1 ± 34 µM; with U31A U47G, 1670 ± 920 µM.
Turning to A39U C68U, the KM came out at 1340 ± 420 µM.
As to G37A U65G, the KM was found to be 3870 ± 390 µM.
Regarding U30A A53U, the KM turned out to be 1860 ± 480 µM.
As for U30A A53C, the KM was found to be 3590 ± 950 µM.

In another data set the parent is B1. As to the kind of experiment: self-cleavage kobs at 10000 uM GlcN6P; higher = faster cleavage; RNA array. As to conditions: with glucosamine-6-phosphate. In a few lines: as §1
As to G41U C68U, the “self-cleavage kobs at 10000 uM GlcN6P” value was found to be 1.23e-05 ± 7.7e-06 s⁻¹.
A33U A53U G66A: the “self-cleavage kobs at 10000 uM GlcN6P” value stood at 3.76e-05 ± 2.2e-05 s⁻¹.
Still for that read-out and setting: to A33U A39C belongs 1.28e-05 ± 9.2e-06 s⁻¹.
As to G41U U69C, the “self-cleavage kobs at 10000 uM GlcN6P” value turned out to be 3.6e-05 ± 2e-05 s⁻¹.

The next data set covers variants of B1. The data set is described as follows: self-cleavage kobs at 2500 uM GlcN6P; higher = faster cleavage; RNA array. As to conditions: with glucosamine-6-phosphate. In outline:
as §1
For the variant G32A A42G A64G, the “self-cleavage kobs at 2500 uM GlcN6P” value turned out to be 0.000585 ± 0.0004 s⁻¹.
Still for that read-out and setting: with G38A C70G the figure was 1.8e-05 ± 1.6e-05 s⁻¹; with U31A C58A, 7.67e-05 ± 5e-05 s⁻¹.

Another data set covers variants of B1. The data set is described as follows: self-cleavage kobs at 640 uM GlcN6P; higher = faster cleavage; RNA array. As to conditions: with glucosamine-6-phosphate. In a few lines:
as §1
Consider G38A C61A G66U U69C C70U, for which the “self-cleavage kobs at 640 uM GlcN6P” value was 3.9e-05 ± 2.4e-05 s⁻¹.
On the same count and under the same terms, with C16U G43A the figure was 3.1e-05 ± 1.8e-05 s⁻¹; with G41C U46G, 2.3e-05 ± 1.9e-05 s⁻¹.
In the case of U30G C68G, the “self-cleavage kobs at 640 uM GlcN6P” value turned out to be 2.76e-05 ± 2e-05 s⁻¹.

Variants of B1 are the subject of a further data set. As to the kind of experiment: self-cleavage kobs at 160 uM GlcN6P; higher = faster cleavage; RNA array. As to conditions: with glucosamine-6-phosphate. In a few lines: as §1
Regarding G38A C61A G66U U69C C70U, the “self-cleavage kobs at 160 uM GlcN6P” value amounted to 2.83e-05 ± 1.9e-05 s⁻¹.
On to G29U G40C, for which the “self-cleavage kobs at 160 uM GlcN6P” value came out at 3.91e-05 ± 2.2e-05 s⁻¹.
Same read-out and setting: to A15U G66U belongs 3.04e-05 ± 1.9e-05 s⁻¹.
As for G29U A52G, the “self-cleavage kobs at 160 uM GlcN6P” value came out at 2.24e-05 ± 2.2e-05 s⁻¹.
The same measure, in the same setting: with U31G A53U the figure was 0.000249 ± 0.00016 s⁻¹; with G32A U45G, 2.33e-05 ± 1.5e-05 s⁻¹; with U30G C68G, 1.67e-05 ± 1.5e-05 s⁻¹.
In the case of G29U C70G, the “self-cleavage kobs at 160 uM GlcN6P” value was determined as 1.19e-05 ± 1.1e-05 s⁻¹.

Variants of B1 are the subject of the next data set. As to the kind of experiment: self-cleavage kobs at 40 uM GlcN6P; higher = faster cleavage; RNA array. To be noted: with glucosamine-6-phosphate. In outline:
as §1
As to G29U G40C, the “self-cleavage kobs at 40 uM GlcN6P” value is 3.88e-05 ± 2.6e-05 s⁻¹.
The same measure, in the same setting: to G29U C70G belongs 2.09e-05 ± 1.4e-05 s⁻¹.

Source of the values: the supplement of paper PMC7125110.
